Our source for the T/C values is PubChem BioAssay AID248 (DTP/NCI, 2004).

The assay deals with L1210 leukemia ip in BDF1 mice, survival T/C. The experiment in a line: NCI In Vivo Anticancer Drug Screen. Data for tumor model L1210 Leukemia (intraperitoneal) in B6D2F1 (BDF1) mice. The settings on record: T/C endpoint: mean survival time, higher T/C = longer survival.

The structures appear in SMILES notation. The list does not hold the whole screen: it covers a few groups of compounds. Not every dose and run of a compound is shown. T/C is the treated group as % of the vehicle group. Where survival is the endpoint, the PubChem record calls one and a half times the control and up active, and a quarter to a half above the control has no call in these data; cut-offs in other NCI protocols can differ. Some T/C values are marked as having no survivor count here; that says nothing about deaths at the dose. Schedule codes are those of the source, taken here to give the interval after Q, in days (D) or hours (H), and the number of doses after X. Marks such as (2×) give the number of equal values in this list. Some entries hold several experiments; their values stand side by side, smallest first. Some schedule codes hold Z or #, which are not explained here.

`O=C(O)CCOc1ccccc1N(CCCl)CCCl`: the T/C runs as follows: (dose: 1.8 mg/kg/injection, schedule: Q01DX Z (ip), vehicle: methylcellulose (MC)) 111 % of control [survivor count not shown]; (dose: 2.7 mg/kg/injection, schedule: Q01DX Z (ip), vehicle: methylcellulose (MC)) 128 % of control [survivor count not shown]; (dose: 3.75 mg/kg/injection, schedule: Q01DX Z (ip), vehicle: methylcellulose (MC)) 97 [survivor count not shown], 106 [survivor count not shown], 111 % of control [survivor count not shown]; (dose: 4.0 mg/kg/injection, schedule: Q01DX Z (ip), vehicle: methylcellulose (MC)) 125 % of control [survivor count not shown]; (dose: 5.0 mg/kg/injection, schedule: Q01DX001 (ip), vehicle: carboxymethylcellulose (CMC)) 107 % of control [survivor count not shown]; (dose: 6.0 mg/kg/injection, schedule: Q01DX Z (ip), vehicle: methylcellulose (MC)) 130 [survivor count not shown] and 148 % of control [survivor count not shown]. Besides, the T/C was 96 [survivor count not shown], 112 [survivor count not shown], 120 % of control [survivor count not shown] (dose: 7.5 mg/kg/injection, schedule: Q01DX Z (ip), vehicle: methylcellulose (MC)); 125 % of control [survivor count not shown] (dose: 9.0 mg/kg/injection, schedule: Q01DX Z (ip), vehicle: methylcellulose (MC)); 113 % of control [survivor count not shown] (dose: 10.0 mg/kg/injection, schedule: Q01DX001 (ip), vehicle: carboxymethylcellulose (CMC)); 168 % of control [survivor count not shown] (dose: 13.0 mg/kg/injection, schedule: Q01DX Z (ip), vehicle: methylcellulose (MC)); 98 [survivor count not shown], 107 [survivor count not shown], 111 % of control [survivor count not shown] (dose: 15.0 mg/kg/injection, schedule: Q01DX Z (ip), vehicle: methylcellulose (MC)); 109 % of control [survivor count not shown] (2×) (dose: 17.7 mg/kg/injection, schedule: Q01DX001 (ip), vehicle: carboxymethylcellulose (CMC)). Also, the T/C is 125 % of control [survivor count not shown] (dose: 20.0 mg/kg/injection, schedule: Q01DX001 (ip), vehicle: carboxymethylcellulose (CMC)); 128 % of control [survivor count not shown] (dose: 20.0 mg/kg/injection, schedule: Q01DX Z (ip), vehicle: methylcellulose (MC)); 109 [survivor count not shown] and 118 % of control [survivor count not shown] (dose: 26.6 mg/kg/injection, schedule: Q01DX001 (ip), vehicle: carboxymethylcellulose (CMC)); 111 % of control [survivor count not shown] (dose: 30.0 mg/kg/injection, schedule: Q01DX Z (ip), vehicle: methylcellulose (MC)); 126 [survivor count not shown] and 128 % of control [survivor count not shown] (dose: 40.0 mg/kg/injection, schedule: Q01DX001 (ip), vehicle: carboxymethylcellulose (CMC)); 101 % of control [survivor count not shown] (dose: 60.0 mg/kg/injection, schedule: Q01DX001 (ip), vehicle: carboxymethylcellulose (CMC)). For the same compound, the T/C (dose: 60.0 mg/kg/injection, schedule: Q01DX Z (ip), vehicle: methylcellulose (MC)) was 102 % of control [survivor count not shown].
Regarding `BrCCN(CCBr)c1ccc2c(c1)Cc1ccccc1-2`, the T/C reads like this: (dose: 3.12 mg/kg/injection, schedule: Q01DX009 (ip), vehicle: Klucel (hydroxypropylcellulose) (HPC)) 162 % of control [survivor count not shown]; (dose: 3.13 mg/kg/injection, schedule: Q01DX009 (ip), vehicle: Klucel (hydroxypropylcellulose) (HPC)) 119 % of control [survivor count not shown]; (dose: 6.25 mg/kg/injection, schedule: Q01DX009 (ip), vehicle: Klucel (hydroxypropylcellulose) (HPC)) 108 [survivor count not shown] and 113 % of control [survivor count not shown]; (dose: 12.5 mg/kg/injection, schedule: Q01DX009 (ip), vehicle: Klucel (hydroxypropylcellulose) (HPC)) 111 [survivor count not shown] and 118 % of control [survivor count not shown]; (dose: 25.0 mg/kg/injection, schedule: Q01DX009 (ip), vehicle: Klucel (hydroxypropylcellulose) (HPC)) 119 [survivor count not shown] and 178 % of control [survivor count not shown]; (dose: 50.0 mg/kg/injection, schedule: Q01DX009 (ip), vehicle: Klucel (hydroxypropylcellulose) (HPC)) 121 [survivor count not shown] and 131 % of control [survivor count not shown]. Moreover, the T/C reads like this: (dose: 100.0 mg/kg/injection, schedule: Q04DX003 (ip), vehicle: Klucel (hydroxypropylcellulose) (HPC)) 126 % of control [survivor count not shown]; (dose: 132.0 mg/kg/injection, schedule: Q04DX003 (ip), vehicle: saline with Tween-80) 107 % of control [survivor count not shown]; (dose: 200.0 mg/kg/injection, schedule: Q04DX003 (ip), vehicle: Klucel (hydroxypropylcellulose) (HPC)) 134 % of control [survivor count not shown]; (dose: 200.0 mg/kg/injection, schedule: Q04DX003 (ip), vehicle: saline with Tween-80) 99 % of control [survivor count not shown]; (dose: 300.0 mg/kg/injection, schedule: Q04DX003 (ip), vehicle: saline with Tween-80) 93 % of control [survivor count not shown]; (dose: 400.0 mg/kg/injection, schedule: Q04DX003 (ip), vehicle: Klucel (hydroxypropylcellulose) (HPC)) 130 % of control [survivor count not shown].
Take `O=C1C(SCCCl)=C(SCCCl)C(=O)c2[nH]cnc21`: the T/C (dose: 50.0 mg/kg/injection, schedule: Q01DX001 (ip), vehicle: carboxymethylcellulose (CMC)) was 107 % of control [survivor count not shown] and the T/C (dose: 100.0 mg/kg/injection, schedule: Q01DX001 (ip), vehicle: carboxymethylcellulose (CMC)) was 107 % of control [survivor count not shown].
In the case of `CCN(CC)P(=O)(Cl)N(CCCl)CCCl` (stereo not drawn), the T/C runs as follows: (dose: 100.0 mg/kg/injection, schedule: Q04DX002 (ip), vehicle: DMSO) 115 % of control [survivor count not shown]; (dose: 200.0 mg/kg/injection, schedule: Q04DX002 (ip), vehicle: DMSO) 112 % of control [survivor count not shown].
Turning to `COc1cc(CN(CCCl)CCCl)cc(OC)c1OC`, the T/C reads like this: (dose: 5.0 mg/kg/injection, schedule: Q01DX009 (ip), vehicle: saline) 121 % of control [survivor count not shown]; (dose: 5.0 mg/kg/injection, schedule: Q01DX Z (ip), vehicle: saline) 97 % of control [survivor count not shown]; (dose: 10.0 mg/kg/injection, schedule: Q01DX009 (ip), vehicle: saline) 105 % of control [survivor count not shown].
